Results are given in words; binding and its absence hold for the method and conditions named. Binding seen in cells or lysates may run through a third protein. For part of these data: Binding calls can cover weak binding; strength is not graded here.

Chains of the proteins cited; added tags and fusions are not shown. Lines headed by an entry give the natural chain unless they say otherwise; changes in a name come on top.
UniProt Q27J81: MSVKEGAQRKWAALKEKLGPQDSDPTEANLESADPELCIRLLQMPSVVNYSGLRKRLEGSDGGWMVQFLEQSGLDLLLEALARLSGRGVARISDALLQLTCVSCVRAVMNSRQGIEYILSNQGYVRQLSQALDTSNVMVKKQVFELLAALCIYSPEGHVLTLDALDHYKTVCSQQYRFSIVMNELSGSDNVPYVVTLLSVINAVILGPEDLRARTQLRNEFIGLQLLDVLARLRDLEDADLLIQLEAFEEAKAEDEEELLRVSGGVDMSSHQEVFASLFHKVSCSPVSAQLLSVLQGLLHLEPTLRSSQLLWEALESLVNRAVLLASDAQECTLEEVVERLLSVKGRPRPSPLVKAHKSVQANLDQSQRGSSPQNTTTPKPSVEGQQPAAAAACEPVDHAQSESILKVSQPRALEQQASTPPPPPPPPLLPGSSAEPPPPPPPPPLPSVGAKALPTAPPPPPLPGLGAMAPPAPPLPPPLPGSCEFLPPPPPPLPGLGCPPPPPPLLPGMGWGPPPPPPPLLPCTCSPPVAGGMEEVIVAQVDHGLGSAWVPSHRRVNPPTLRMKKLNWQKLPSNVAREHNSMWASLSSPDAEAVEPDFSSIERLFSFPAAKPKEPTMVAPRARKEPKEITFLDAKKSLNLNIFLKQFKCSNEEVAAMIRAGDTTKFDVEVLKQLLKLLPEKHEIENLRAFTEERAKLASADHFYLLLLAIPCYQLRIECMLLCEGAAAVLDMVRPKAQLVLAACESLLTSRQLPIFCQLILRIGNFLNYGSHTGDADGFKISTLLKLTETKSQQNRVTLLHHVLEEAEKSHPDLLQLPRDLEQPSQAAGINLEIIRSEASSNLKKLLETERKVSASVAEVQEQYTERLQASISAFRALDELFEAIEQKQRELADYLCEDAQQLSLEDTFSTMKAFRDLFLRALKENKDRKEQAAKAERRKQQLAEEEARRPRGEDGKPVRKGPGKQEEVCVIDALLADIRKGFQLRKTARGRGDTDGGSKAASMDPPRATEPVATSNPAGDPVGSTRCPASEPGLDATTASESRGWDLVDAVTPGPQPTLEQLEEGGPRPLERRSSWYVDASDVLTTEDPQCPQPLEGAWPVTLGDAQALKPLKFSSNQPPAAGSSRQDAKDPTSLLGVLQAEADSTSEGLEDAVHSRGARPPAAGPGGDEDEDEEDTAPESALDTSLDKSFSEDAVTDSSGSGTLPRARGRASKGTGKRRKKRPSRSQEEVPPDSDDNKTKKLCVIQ
UniProt O43791: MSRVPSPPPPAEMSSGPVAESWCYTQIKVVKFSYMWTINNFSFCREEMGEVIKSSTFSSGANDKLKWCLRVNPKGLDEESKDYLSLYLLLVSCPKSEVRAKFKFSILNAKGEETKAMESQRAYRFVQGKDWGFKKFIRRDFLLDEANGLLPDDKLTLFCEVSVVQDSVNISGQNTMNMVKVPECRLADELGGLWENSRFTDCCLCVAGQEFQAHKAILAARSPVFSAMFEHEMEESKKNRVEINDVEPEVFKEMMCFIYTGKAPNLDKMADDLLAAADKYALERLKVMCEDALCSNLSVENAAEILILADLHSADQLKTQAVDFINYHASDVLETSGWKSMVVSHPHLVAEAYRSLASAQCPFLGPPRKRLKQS
UniProt O15131: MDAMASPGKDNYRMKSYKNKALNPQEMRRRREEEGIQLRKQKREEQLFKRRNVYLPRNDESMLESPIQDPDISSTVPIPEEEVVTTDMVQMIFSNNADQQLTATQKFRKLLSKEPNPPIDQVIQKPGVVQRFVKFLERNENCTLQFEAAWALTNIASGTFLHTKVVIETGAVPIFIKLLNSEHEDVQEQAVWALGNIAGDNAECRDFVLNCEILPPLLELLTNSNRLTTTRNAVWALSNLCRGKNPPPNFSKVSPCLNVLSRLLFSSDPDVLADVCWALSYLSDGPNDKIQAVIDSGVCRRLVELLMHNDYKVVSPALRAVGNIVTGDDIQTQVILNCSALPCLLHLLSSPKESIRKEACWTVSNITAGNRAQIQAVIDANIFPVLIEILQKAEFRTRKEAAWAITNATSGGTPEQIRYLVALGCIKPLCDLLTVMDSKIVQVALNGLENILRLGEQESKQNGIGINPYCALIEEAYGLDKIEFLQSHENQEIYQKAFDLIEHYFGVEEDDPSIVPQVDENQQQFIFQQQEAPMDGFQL

One test addresses INF2 ΔSBC mutant (UniProt Q27J81). Nature of the test: co-IP; 293T cells co-transfected with the two plasmids; cell lysates precipitated with anti-FLAG antibody; Western blot. (In general: A western blot detects proteins with antibodies after separation by electrophoresis.)
A further test addresses INF2 ΔInter mutant (UniProt Q27J81). Described as above.
The target in test [1] is FLAG-SPOP-ΔNLS (lentivirus, DU145) (UniProt O43791). Nature of the test: co-IP; DU145 cells infected with lentivirus expressing FLAG-SPOP (WT or ΔNLS) or control; anti-FLAG antibody; endogenous INF2 by Western blot.
The target of test [2] is SPOP-F133L-ΔNLS (UniProt O43791). Nature of the test: co-IP; 293T cells transfected with SPOP constructs; anti-FLAG antibody; endogenous KPNA5 by Western blot.
The target in test [3] is SPOP-F125V-ΔNLS (UniProt O43791). The description is as above.
The target of test [4] is SPOP-ΔNLS (293T) (UniProt O43791). The test is described as above.
Test [5] addresses SPOP-F133L-ΔNLS (UniProt O43791). Nature of the test: co-IP; 293T cells co-transfected with the two plasmids; cell lysates precipitated with anti-FLAG antibody; Western blot.
Test [6] deals with SPOP-F125V-ΔNLS (UniProt O43791). Described as above.
Test [7] has as its target SPOP-ΔNLS (293T) (UniProt O43791). Described as above.

Myc-SPOP (from UniProt O43791 1-374): the binding entry in the test with INF2 ΔSBC mutant is listed as “no binding”; with INF2 ΔInter mutant, “binds”.
Take “endogenous INF2 (DU145) (from UniProt Q27J81 1-1249)”: the binding entry in [1] is “binds”.
“endogenous KPNA5 (293T) (from UniProt O15131 1-539)”: the binding entry with SPOP-F133L-ΔNLS [2], with SPOP-F125V-ΔNLS [3] and in the test with SPOP-ΔNLS (293T) [4] was “no binding” throughout.
Regarding “overexpressed KPNA5 (from UniProt O15131 1-539)”, the binding result with SPOP-F133L-ΔNLS [5], with SPOP-F125V-ΔNLS [6] and with SPOP-ΔNLS (293T) [7] was “no binding” throughout.

Values taken from paper PMC5426793.
